In publication PMC9789999:
These are yes or no findings as the source states them, for the method shown. In cells and extracts the contact can be indirect. Some entries that bind do so weakly or less than the wild type.

The chains behind the UniProt entries cited, without tags or fusion partners.
UniProt Q9DCD6: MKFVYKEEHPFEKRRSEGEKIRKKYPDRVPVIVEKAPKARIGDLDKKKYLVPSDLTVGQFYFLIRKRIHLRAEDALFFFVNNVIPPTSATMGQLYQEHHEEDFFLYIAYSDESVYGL
UniProt Q6VNB8: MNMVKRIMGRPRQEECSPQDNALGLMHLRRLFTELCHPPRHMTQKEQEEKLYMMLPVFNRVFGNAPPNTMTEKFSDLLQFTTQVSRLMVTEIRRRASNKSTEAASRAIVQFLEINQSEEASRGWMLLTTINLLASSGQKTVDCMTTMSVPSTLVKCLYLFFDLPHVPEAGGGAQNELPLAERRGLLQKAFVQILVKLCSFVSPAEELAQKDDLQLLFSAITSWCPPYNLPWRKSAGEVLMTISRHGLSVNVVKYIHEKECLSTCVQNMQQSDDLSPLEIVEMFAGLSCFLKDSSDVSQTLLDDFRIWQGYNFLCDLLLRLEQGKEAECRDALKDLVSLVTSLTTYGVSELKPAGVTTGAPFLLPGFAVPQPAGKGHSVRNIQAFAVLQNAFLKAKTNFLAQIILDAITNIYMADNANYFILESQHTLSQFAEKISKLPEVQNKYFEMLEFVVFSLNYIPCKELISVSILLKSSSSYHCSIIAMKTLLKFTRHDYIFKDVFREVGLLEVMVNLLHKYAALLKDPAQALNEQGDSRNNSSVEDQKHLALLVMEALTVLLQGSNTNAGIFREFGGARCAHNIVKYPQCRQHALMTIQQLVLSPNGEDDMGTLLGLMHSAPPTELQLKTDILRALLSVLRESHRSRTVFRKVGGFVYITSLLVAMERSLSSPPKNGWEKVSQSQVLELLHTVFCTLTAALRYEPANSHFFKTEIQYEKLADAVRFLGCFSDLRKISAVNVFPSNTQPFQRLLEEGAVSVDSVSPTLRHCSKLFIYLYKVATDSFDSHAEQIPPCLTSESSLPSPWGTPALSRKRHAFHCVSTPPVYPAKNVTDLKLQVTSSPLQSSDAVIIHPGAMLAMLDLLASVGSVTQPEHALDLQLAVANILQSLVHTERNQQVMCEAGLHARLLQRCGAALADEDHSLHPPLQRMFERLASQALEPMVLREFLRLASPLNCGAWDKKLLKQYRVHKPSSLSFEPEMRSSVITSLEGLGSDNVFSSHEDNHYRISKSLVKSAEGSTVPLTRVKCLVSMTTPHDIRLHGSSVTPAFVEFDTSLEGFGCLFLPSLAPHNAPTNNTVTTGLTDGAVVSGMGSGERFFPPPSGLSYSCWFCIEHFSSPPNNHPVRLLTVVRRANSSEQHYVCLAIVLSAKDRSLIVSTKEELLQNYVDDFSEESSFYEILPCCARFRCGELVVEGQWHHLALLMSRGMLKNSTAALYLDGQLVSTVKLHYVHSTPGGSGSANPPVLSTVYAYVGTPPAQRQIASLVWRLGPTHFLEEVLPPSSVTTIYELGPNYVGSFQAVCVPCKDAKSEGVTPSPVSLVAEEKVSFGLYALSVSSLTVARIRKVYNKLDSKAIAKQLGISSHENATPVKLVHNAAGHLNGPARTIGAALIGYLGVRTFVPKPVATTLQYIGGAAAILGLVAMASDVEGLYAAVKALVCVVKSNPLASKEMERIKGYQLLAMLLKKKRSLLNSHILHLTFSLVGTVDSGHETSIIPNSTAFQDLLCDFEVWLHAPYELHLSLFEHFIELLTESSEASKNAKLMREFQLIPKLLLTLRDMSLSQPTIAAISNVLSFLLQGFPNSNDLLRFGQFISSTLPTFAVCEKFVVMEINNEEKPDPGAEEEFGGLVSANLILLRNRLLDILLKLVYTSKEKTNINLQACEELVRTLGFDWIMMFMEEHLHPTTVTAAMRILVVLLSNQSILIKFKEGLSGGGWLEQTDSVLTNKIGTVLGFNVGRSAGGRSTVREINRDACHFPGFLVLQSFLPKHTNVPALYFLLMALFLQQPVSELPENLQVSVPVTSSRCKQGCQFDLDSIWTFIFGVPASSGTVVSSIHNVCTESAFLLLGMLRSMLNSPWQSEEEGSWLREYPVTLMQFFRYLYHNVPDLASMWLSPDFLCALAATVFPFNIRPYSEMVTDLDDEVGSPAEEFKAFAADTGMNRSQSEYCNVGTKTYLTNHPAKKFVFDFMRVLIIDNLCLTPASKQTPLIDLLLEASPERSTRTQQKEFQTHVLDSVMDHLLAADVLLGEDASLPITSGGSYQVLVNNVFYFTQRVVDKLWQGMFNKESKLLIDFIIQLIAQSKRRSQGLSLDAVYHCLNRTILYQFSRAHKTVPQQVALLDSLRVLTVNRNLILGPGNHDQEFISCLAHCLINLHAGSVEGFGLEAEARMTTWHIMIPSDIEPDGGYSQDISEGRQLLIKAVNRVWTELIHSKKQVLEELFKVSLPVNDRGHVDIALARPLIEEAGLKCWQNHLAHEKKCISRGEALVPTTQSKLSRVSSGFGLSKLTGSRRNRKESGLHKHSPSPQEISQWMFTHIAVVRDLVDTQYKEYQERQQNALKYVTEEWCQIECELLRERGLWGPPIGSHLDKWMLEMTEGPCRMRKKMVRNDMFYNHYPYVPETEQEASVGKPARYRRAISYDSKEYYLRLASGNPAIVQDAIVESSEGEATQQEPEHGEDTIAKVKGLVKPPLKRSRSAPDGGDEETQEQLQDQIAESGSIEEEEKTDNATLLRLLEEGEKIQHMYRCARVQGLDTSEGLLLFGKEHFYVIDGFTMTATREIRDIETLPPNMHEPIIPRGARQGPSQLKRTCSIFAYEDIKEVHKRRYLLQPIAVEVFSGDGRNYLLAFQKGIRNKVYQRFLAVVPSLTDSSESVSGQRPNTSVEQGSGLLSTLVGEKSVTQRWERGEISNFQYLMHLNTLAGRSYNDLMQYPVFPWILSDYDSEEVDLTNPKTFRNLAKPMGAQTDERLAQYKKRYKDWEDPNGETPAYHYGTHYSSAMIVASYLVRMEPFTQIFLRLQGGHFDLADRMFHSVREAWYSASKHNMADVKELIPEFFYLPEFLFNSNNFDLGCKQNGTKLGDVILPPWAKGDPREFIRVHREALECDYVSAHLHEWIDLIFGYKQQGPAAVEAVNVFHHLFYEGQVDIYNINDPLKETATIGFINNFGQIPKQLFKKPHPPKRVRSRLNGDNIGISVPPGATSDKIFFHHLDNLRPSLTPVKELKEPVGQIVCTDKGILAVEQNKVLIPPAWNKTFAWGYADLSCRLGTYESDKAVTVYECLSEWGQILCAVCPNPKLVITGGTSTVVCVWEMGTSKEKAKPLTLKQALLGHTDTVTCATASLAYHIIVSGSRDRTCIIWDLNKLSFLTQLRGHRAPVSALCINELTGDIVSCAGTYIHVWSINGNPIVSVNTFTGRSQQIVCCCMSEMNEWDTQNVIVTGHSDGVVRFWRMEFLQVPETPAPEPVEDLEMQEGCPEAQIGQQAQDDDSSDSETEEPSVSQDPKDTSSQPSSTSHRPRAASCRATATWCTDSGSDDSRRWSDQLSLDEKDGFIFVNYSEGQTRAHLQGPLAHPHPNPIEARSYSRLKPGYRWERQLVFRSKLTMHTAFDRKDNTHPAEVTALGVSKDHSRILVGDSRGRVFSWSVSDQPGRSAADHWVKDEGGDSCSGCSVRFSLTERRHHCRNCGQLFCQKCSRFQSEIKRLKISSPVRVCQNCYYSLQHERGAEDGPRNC

Molecular target: GABARAP (mouse (endogenous in BMDMs)) (UniProt Q9DCD6)
Assay: co-IP; 250 ug whole-cell lysate of Cre- BMDMs in RIPA buffer incubated with 8 ug anti-GABARAP antibody (Abcam ab191888) overnight at 4 C, then protein A/G agarose beads 1-2 h at 4 C, three washes with RIPA buffer; bead-bound proteins blotted with anti-WDFY3; both proteins endogenous; Cre+ (Wdfy3 knockout) lysate as control

binding: binds
Substance: WDFY3 (WD repeat and FYVE domain containing 3) (from UniProt Q6VNB8 1-3508)
